## Microarray screen: hit calls

From ROBIN, a set of small-molecule microarray screens (doi:10.1002/anie.202211358).

Targets, with sequences 5′ to 3′:
TPP: TPP riboswitch RNA three-way junction, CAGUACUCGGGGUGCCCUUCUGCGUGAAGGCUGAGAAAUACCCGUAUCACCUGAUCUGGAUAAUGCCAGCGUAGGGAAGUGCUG. About 24,000 compounds screened, about 160 hits.

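The test is a small-molecule microarray: each compound is printed twice on a reactive slide, and binding shows as fluorescence of the labelled oligonucleotide after washing. For the PreQ1, TPP and SAM-II riboswitches the laboratory earlier reported (doi:10.1038/s41467-019-09493-3) 1 µM RNA, 2 h, and a rule that included a mean Z-score above 3 (spot signal-to-noise against the whole library), a score well above that on a control array, and duplicate spots agreeing (coefficient of variation under 100). The data file gives only the calls; its cut-offs may differ, and compounds hitting several targets are kept. A missing hit is not proof of no binding, and a hit is not a measured affinity.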 Key: hit = hit, none = tested without a hit. This is an unselected part of the compounds tested.

compound	TPP
CC1CCN(c2c(NCC3CCC(C(=O)N4CCCCC4)CC3)c(=O)c2=O)CC1 (stereo not given)	none
CCOc1ccc(-c2noc(-c3nnn(-c4ccc(Cl)cc4)c3N)n2)cc1	none
Cc1ccccc1NC1=NS(=O)(=O)c2ccccc21	none
COc1ccccc1N1CC(Nc2cc(CCN)ncn2)CC1=O (stereo not given)	none
Cc1ccc2ncc(S(=O)(=O)c3ccccc3)c(NCc3ccccc3)c2c1	none
Cc1c(-c2ccccc2F)[nH]c2ccc(CNC(=O)c3cc(N)[nH]n3)cc12	hit
COc1ccccc1CNc1ccc(N2CCOCC2)c(C(=O)O)c1	none
O=C(O)c1ccc(NCc2nc3ccccc3n2Cc2ccccc2)cc1	none
CCOC(=O)Nc1ccc(NCc2ccc(F)cc2)nc1N	none
Cc1ccnc(NS(=O)(=O)c2ccc(NC(=O)Nc3ccc(S(=O)(=O)Nc4nccc(C)n4)cc3)cc2)n1	none
CC(C)(C)c1cnc(CSc2cnc(NC(=O)C3CCNCC3)s2)o1	none
NCCC1CN(c2cnn(CCCn3cnnn3)c(=O)c2)CCO1 (stereo not given)	none
CCc1nccn1CC(=O)N1CCCC2(CCNC2)C1 (stereo not given)	none
COCCNCCCn1c(C(=O)CF)c(-c2ccc(C)cc2)c2c(N)ncnc21	none
OCCNCCNCc1ccc2[nH]c3ccccc3c2c1	none
Cc1nnc(C(C)C)n1C1C[C@H]2CC[C@@H](C1)N2CC[C@H](NC(=O)C1CCC(F)(F)CC1)c1ccccc1 (stereo not given in full)	none
CSc1ccc(CNn2nnnc2N)cc1	none
Cc1ccc(N2CCCn3c2nc2c3c(=O)n(CCCO)c(=O)n2C)cc1	none
CCNc1nc2c(c(=O)n(C)c(=O)n2C)n1CC	none
COc1ccc(-c2ccc(CNC3CC3)o2)cc1Cl	none
Cc1cccc(Nc2nc(N)nc(CN3CCCC3c3ccc(F)cc3)n2)c1 (stereo not given)	none
O=C(Cc1ccc(O)cc1)N1CCN(Cc2ccccc2CO)CC1	none
CS(=O)(=O)N1CCN(c2ccc(Nc3c4c(nc5ncnn35)CCC4)cc2)CC1	none
O=C(CNCCN1CCCOC1=O)NC1CCCCCCC1	none
O=C(Nc1cccc(-c2ccccn2)c1)N[C@H]1CC[C@H](O)CC1	none
CCSc1nc(=O)cc(O)[nH]1	none
CC1(C)CC2(C)OC2C2(C1)N=N/C(=N/c1ccccc1)O2 (stereo not given)	none
COc1ccccc1NCc1ccccc1-c1nnc(-c2ccccc2Cl)o1	none
OCCCc1nc2ccccc2n1CCOc1ccc(Cl)cc1	none
CN1CCN(c2cc(Sc3cccs3)nc(N)n2)CC1CCO (stereo not given)	none
O=[N+]([O-])c1cc([As](=O)(O)c2ccc(O)c([N+](=O)[O-])c2)ccc1O	none
Cc1ccc(-c2c(NC3CCCCCCC3)c(=O)c2=O)cc1C	none
N#Cc1c(-c2cccc(O)c2)c(C#N)c2nc3ccccc3n2c1N	none
CC1=C(c2ccc(C(C)C)cc2)S(=O)(=O)N=C1Nc1cc(F)ccc1F	none
Cc1cccc(-c2nn3c(NCCN(C)C)cc(C)nc3c2C)c1	none

The last 2 entries again:

compound	TPP
CC1=C(c2ccc(C(C)C)cc2)S(=O)(=O)N=C1Nc1cc(F)ccc1F	none
Cc1cccc(-c2nn3c(NCCN(C)C)cc(C)nc3c2C)c1	none